Measured values as given in publication PMC11041666.

Amino acid sequences for entries named in this document (tags omitted).
UniProt O35219: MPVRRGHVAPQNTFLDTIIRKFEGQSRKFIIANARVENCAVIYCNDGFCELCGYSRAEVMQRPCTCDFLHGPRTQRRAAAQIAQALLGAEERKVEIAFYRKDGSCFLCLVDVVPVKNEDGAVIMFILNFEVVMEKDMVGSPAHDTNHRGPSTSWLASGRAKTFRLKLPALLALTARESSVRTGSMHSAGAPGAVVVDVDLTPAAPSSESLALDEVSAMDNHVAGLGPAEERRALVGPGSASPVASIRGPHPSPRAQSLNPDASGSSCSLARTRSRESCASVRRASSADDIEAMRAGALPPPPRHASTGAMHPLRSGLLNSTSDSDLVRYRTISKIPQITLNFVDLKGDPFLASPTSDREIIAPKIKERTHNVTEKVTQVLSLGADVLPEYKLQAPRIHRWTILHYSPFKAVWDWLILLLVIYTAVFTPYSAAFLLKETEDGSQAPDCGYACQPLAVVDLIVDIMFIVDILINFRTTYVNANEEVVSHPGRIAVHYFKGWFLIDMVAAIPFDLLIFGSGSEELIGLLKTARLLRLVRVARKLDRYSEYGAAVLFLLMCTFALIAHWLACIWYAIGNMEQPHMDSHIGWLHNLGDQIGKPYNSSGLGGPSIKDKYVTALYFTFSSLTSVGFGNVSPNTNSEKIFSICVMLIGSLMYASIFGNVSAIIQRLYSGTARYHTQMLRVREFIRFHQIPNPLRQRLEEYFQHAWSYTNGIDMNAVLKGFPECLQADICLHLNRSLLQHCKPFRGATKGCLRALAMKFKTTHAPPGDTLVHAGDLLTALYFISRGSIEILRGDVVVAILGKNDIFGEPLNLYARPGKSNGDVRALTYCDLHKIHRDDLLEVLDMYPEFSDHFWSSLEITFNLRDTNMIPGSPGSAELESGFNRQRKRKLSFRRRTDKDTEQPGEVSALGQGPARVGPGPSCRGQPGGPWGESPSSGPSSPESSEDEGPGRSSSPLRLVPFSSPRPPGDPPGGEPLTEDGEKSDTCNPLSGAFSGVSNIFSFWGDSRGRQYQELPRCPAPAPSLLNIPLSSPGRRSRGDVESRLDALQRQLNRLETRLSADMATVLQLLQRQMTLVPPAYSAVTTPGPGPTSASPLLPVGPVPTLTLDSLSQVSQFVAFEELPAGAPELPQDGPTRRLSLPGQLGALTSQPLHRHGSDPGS
UniProt P97414: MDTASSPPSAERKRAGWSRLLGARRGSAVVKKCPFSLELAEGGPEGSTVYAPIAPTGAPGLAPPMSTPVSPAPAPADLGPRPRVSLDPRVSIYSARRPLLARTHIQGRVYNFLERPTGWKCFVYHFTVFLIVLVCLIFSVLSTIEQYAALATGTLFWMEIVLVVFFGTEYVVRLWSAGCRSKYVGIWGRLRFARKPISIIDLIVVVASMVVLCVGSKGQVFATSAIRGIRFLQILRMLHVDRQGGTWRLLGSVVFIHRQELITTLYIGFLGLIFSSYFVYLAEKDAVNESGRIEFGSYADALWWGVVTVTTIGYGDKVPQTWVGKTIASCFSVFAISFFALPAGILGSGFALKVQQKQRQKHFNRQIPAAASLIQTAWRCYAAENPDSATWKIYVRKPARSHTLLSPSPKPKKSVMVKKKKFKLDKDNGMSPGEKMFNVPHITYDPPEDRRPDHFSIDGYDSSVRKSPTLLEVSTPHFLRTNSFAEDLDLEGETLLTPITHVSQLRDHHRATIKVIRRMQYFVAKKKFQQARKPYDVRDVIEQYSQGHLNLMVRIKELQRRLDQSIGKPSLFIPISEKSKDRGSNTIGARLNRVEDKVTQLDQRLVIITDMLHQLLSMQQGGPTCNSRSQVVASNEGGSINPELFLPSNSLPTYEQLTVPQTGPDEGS
UniProt Q01815: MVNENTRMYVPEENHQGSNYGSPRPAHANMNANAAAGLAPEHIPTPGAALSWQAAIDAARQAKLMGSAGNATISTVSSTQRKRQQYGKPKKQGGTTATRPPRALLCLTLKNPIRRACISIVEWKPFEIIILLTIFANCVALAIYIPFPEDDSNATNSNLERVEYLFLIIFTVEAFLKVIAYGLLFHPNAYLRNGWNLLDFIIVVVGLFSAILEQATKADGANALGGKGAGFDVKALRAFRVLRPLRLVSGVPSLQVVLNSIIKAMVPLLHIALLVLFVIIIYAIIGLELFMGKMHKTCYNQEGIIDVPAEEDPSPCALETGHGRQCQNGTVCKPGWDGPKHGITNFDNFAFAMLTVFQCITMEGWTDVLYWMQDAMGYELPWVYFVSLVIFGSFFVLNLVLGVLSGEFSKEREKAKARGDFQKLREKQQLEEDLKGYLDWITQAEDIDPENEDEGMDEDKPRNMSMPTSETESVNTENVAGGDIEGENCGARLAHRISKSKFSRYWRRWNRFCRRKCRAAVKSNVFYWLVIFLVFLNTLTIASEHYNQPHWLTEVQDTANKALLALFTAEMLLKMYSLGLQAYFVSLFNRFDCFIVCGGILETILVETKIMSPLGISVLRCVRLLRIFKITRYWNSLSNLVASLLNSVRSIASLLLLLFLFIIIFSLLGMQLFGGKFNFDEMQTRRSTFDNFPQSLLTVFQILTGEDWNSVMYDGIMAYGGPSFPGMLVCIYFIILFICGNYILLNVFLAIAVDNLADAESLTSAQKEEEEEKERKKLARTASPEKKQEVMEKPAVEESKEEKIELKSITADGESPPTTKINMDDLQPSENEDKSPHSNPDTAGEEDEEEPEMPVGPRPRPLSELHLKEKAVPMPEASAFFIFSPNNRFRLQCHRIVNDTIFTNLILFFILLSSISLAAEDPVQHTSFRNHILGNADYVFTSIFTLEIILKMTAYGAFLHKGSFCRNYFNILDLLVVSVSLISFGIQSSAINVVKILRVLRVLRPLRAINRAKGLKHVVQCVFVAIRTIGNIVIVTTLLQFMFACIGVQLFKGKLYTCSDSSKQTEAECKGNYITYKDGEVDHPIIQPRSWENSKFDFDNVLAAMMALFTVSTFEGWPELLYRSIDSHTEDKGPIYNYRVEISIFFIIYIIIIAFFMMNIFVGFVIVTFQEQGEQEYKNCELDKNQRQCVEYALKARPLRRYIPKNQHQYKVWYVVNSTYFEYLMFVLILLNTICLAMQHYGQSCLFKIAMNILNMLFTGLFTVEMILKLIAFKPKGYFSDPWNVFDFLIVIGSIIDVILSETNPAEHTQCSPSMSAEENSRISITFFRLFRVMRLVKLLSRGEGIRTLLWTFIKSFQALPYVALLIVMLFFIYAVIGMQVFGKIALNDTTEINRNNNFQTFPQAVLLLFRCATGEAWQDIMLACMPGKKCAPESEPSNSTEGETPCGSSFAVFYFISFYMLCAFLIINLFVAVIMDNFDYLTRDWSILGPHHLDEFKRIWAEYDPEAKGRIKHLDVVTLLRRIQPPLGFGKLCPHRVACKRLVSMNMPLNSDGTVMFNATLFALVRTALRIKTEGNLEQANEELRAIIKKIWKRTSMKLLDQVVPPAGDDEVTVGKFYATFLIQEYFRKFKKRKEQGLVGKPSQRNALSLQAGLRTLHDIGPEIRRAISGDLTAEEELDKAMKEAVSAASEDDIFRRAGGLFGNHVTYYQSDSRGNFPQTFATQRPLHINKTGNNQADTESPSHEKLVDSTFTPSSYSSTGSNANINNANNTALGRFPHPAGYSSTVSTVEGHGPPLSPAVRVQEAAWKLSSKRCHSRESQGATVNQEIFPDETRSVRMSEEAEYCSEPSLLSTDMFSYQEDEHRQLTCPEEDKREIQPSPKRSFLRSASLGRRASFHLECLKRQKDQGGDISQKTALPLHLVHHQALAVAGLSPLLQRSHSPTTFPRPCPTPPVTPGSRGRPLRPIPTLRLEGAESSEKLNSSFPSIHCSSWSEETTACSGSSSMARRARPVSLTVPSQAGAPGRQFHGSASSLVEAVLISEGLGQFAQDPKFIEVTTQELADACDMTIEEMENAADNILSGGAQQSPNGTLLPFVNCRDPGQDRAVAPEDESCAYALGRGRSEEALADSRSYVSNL

Key:
Assay in all cases: affinity purification with mass spectrometry; IP of the endogenous channel with 2 µg channel antibody from 3 mg membrane-enriched mouse heart lysate (1% NP-40, 1% sodium deoxycholate), overnight at 4 °C, Dynabeads Protein G, quadruplicate; LC-MS/MS; significant interactors against control by volcano plot
[1] = target: T1, Kcnj2 (Kir2.1) (mouse (endogenous in murine cardiac tissue)) (UniProt P35561)
T1 sequence: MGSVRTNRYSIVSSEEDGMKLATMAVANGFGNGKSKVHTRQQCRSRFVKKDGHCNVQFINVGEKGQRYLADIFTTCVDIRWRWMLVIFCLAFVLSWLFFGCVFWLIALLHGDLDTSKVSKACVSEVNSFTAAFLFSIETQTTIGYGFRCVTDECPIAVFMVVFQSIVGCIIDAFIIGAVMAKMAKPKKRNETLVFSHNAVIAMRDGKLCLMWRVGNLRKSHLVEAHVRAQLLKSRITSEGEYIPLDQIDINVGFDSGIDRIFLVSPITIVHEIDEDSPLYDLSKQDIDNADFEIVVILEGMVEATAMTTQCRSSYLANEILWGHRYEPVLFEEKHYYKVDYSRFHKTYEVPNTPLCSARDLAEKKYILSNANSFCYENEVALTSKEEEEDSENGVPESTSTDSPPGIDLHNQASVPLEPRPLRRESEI

[2] = target: Kcnh2 (Kv11.1/ERG) (mouse (endogenous in murine cardiac tissue)) (UniProt O35219)
[3] = target: T2, Kcnj3 (Kir3.1) (mouse (endogenous in murine cardiac tissue)) (UniProt P63250)
T2 sequence: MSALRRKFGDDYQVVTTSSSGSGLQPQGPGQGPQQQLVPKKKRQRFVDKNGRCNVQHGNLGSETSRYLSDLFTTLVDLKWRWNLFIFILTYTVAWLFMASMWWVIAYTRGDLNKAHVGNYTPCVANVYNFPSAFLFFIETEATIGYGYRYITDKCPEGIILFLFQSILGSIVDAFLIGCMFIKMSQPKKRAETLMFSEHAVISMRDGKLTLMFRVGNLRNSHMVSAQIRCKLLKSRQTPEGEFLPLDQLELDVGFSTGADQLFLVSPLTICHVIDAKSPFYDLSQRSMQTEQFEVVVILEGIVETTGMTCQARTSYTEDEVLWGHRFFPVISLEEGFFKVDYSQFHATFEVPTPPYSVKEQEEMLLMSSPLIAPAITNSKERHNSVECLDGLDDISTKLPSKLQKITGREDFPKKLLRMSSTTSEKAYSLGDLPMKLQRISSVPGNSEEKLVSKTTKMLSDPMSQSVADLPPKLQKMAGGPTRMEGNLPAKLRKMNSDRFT

[4] = target: Kcnq1 (Kv7.1/Kcnq1) (mouse (endogenous in murine cardiac tissue)) (UniProt P97414)
[5] = target: Scn5a (Nav1.5) (mouse (endogenous in murine cardiac tissue)) (UniProt Q9JJV9)
[6] = target: Gja1 (Cx43) (mouse (endogenous in murine cardiac tissue)), P23242; details: remark: other sources report otherwise
[7] = target: Cacna1c (Cav1.2) (mouse (endogenous in murine cardiac tissue)) (UniProt Q01815)

binding [1]: binds
B1: Mpp7 (protein, UniProt Q8BVD5 1-576)
chain: MPALATGSACDMGLYELLAALPAQLQPHVDSQEDLTFLWDVFGEKSLHSLVKIHEKLHCYEKQNPLPILHGAAALADDLTEELQNKLPNSEIRELLKLLSKPNVKALLSVHDTVAQKSYDPVLPPVPDDIDDEEDSVKIIRLVKNSEPLGATIKKDEQTGAITVARIMRGGAADRSGLIHVGDELREVNGIPVEDKRPEEIIKILSQSKGAITFKIIPSTKEETPSKEGKIFIKALFDYDPKEDKAIPCKEAGLSFRKGDILQIMSQDDVTWWQAKHEGDANPRAGLIPSKHFQERRLALRRPEIVVQPLKLSNTKSSGFRRSFRLSRKNKKINKSMYECKKSEQYDTADVPTYEEVTPYRRQIHDKYRLIVLVGPVGVGLNELKRKLLMSDAQHYGVIVPHTTRARRSQESDGVEYIFISKHLFETDVQINKFIEYGEYKNNYYGTSIDSVRSVLAKNKVCLLDVQPHTVKHLRTLEFKPYVIFIKPPSIERLRETRKNAKIISSRDDQGTAKPFTEEDFQEMIKSAQIMESQYGHLFDKIIINDDLTVAFNELKTTFDKLETDTHWVPVSWLHS

binding [3]: binds
binding [4]: binds
B2: Synpo2l (protein, UniProt Q8BWB1 1-975)
chain: MGAEEEVQVTLAGGAPWGFRLQGGTEQRKPLQIRRRSQAGRAGLRERDQLLAINGVSCTNFSHASAMTLIDASGRQLVLTVRRVTDEGSVRSPSPGELQVLSPLSPLSPEPPGAPVSQALQPTSLRSPPDSEAYYGETDSDVDGPATQEKPRRTRRRGPARPSLPGAPPDEVYLSDSPAEPAPVKTGSPSQGDSRVSSPSWEEGAALQPPPAEALLLPHGPLRPGPHLIPMVGPVPHPVAEDLTTTYTQKAKQAKLQRAESLQEKSVKEARTKCRTIASLLTAAPNPHSKGVLMFKKRRQRAKKYTLVSFGAAAGTGTEEEDGIPPTSESELDEETFSDARSLTNQSDWDSPYLDMELARAGLGTAESQNSGLGGQLSEVSGRGVQLFEQQRQRVASSSQELAQVGPAAMLNGQSLQSPPRAQSAPPEAAVLPLSPLSVPAVSPTPFFPDGGAPIPAPSIFNRSARPFTPGLQGQRSGTTSVIFRPLAPKKVNEGLGSTSPAPSPFAAPPQGPTPLPSFTTVVPSHTPVSGASSSTQRSSGPVTATSSLYIPAPSRPVTPGGAPEPPTPPSAAAMTSTASIFLSTPLRNSARPEAPGPAVPEPASVREQRISVPAARTGILQEARRRGTRKQMFRPGKEETKNSPNPELLSLVQNLDEKPRAGGAESGPEEDALSLGAEACNFMQPLGGRSYKTLPQVSPKTPPPMAPKTPPPTTPKTPPPVAPKPGSRGLLDGLVNGSTPMVGIPEPPRLQGRGGELFAKRQSRADRYVVEATSGSSLNPGLRPRSPSPTPSLPPSWKYSPNIRAPPPIAYNPLLSPFFPQAARTLPNKAQSQGPRVTPKQGIKALDFMRHQPYQLKTAMFCFDEGSSTPGPTSGPPKTARVQEIRRFSTPAPQPTAEPLAPTVLVPRAATTLDEPIWRAELASTPVPNPDHQESLRSFAAAPSSCGFQVARPRFSATRTGLQAHVWRPGAGHQ
binding [2]: binds

binding [4]: binds
B3: Nebl (protein, UniProt Q0II04 1-452)
chain: MKVPVSGDVKEETEEENVEQEENQEAKVSLKPVIEDLSMELARKCTELISDIHYKEEYKKSKDKCTFVTDTPMLNHVKNIGAFISEAKYKGTIKADLSNCLYKDMPATIDSVFAREVSQLQSEVAYKQKHEAEKGFSDYTHMKEPPEVRRAMEVNRHQSNISYRKDMQGTHTYTAELDRPDIKKATQISKIISDAEYKKGQGIVNKEPSVIGRPDFEHAVGASKLSSQVKYKEKFDNEMKEKSHHYNPLGSAFFRQHQFAAVLASDWEYKRDFEENKGLYHFDAEAPEHLHHKGNATLQSQVKYREEYEKNKGKSMLEFVETPSYQSSKEAQKMQSEKVYKEDFEKEIKGRSSLDLDKTPAFLHVKHITNLMREKEYKKDLENEIKGKGMELSSEVLDIQRAKRASEMASEKDYKRDLETEIKGKGMQVSTDTLDVQRAKRASEMASQVRMV

B4: Glipr2 (protein, UniProt Q9CYL5 1-154)
chain: MGKSASKQFNNEVLKAHNEYRAQHGVPPLKLCKKLNREAQQYSEALASTRILKHSPESSRGQCGENLAWASYDQTGKDVADRWYSEIKSYNFQQPGFTSGTGHFTAMVWKNTKKIGVGKASASDGSSFVVARYFPAGNIVNQGFFEENVPPPKK
binding [5]: binds

binding [6]: binds
B5: Pln, P61014 1-52 (protein)
chain: MEKVQYLTRSAIRRASTIEMPQQARQNLQNLFINFCLILICLLLICIIVMLL

B6: Pln (protein, UniProt P61014 1-52)
chain: B5 chain
binding [7]: binds

binding [1]: binds
B7: Flot2 (protein, UniProt Q60634 1-428)
chain: MGNCHTVGPNEALVVSGGCCGSDYKQYVFGGWAWAWWCISDTQRISLEIMTLQPRCEDVETAEGVALTVTGVAQVKIMTEKELLAVACEQFLGKNVQDIKNVVLQTLEGHLRSILGTLTVEQIYQDRDQFAKLVREVAAPDVGRMGIEILSFTIKDVYDKVDYLSSLGKTQTAVVQRDADIGVAEAERDAGIREAECKKEMLDVKFMADTKIADSKRAFELQKSAFSEEVNIKTAEAQLAYELQGAREQQKIRQEEIEIEVVQRKKQIAVEAQEILRTDKELIATVRRPAEAEAHRIQQIAEGEKVKQVLLAQAEAEKIRKIGEAEAAVIEAMGKAEAERMKLKAEAYQKYGDAAKMALVLEALPQIAAKISAPLTKVDEIVVLSGDNSKVTSEVNRLLAELPASVHALTGVDLSKIPLIKNATGAQV

B8: epsin-2 (Epn2) (protein, UniProt Q8CHU3 1-595)
chain: MTTSSIRRQMKNIVNNYSEAEIKVREATSNDPWGPSSSLMTEIADLTYNVVAFSEIMSMVWKRLNDHGKNWRHVYKALTLLDYLIKTGSERVAQQCRENIFAIQTLKDFQYIDRDGKDQGINVREKSKQLVALLKDEERLKVERVQALKTKERMAQVATGVGSNQITFGRGSSQPNLSTSYSEQEYGKAGGSPASYHGSTSPRVSSELEQARPQTSGEEELQLQLALAMSREVAEQSSESVQTARGSKEERLRRGDDLRLQMALEESRRDTVKVPKKKEAKACCKPGSHSQQTTLLDLMDALPSSGPVTQKTEPWSAGASANQTNPWGGTVAPSNITDPWPSFGTKPAASVDPWGVPTTASTQSVPKNSDPWAASQQPASNAGKTTDAWGAAKPSSASGSFELFSNFNGTVKDDFSEFDNLRTSKKPAESGASVPPQDSRTTSPDLFESQSLTSASSKPSSARKTPESFLGPNAALVNLDSLVTKPAPPAQSLNPFLAPGAAAPAPVNPFQVNQPQPLTLNQLRGSPVLGSSASFGSGPGVETVAPMTSVAPHSSVGASGSSLTPLGPTAMNMVGSVGIPPSAAQSTGTTNPFLL
binding [5]: binds

No constants are given. Whether binding was seen depends on the method and setting. In cells and extracts the contact can be indirect. These calls come from enrichment with a bait or labelling near it, and not all partners need be listed. One block for each binder: values may come before it.
